PubChem BioAssay AID504774 – Drosophila RNAi Screening Center | 2011

Test: 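Fly genes whose loss alters survival after alkylation damage to DNA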 (primary screen)
Cells: Drosophila Kc167 cells
Knock-down reagent: long dsRNA against Drosophila genes, about 0.25 µg dsRNA per well
Time to read-out: about 6 days: 3 days knock-down, then 3 days with or without MMS
Treatment: methyl methanesulphonate 0.004% (w/v) for 3 days after knock-down
Measured: 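Viability in wells given MMS, read as ATP luminescence, normalised by quantiles plate by plate and averaged across replicates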
Direction: mean viability with MMS and viability with MMS: higher = more surviving cells after MMS
In all, the deposit lists about 23,000 reagents; below is an unselected part of those with a known target gene and a result. 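Values are quantile-normalised luminescence on an arbitrary scale; higher means more cells surviving MMS.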 Names joined by + are all predicted targets of the reagent.

Target gene | dsRNA | mean viability with MMS | viability with MMS, replicate 1 | viability with MMS, replicate 2
drosha | DRSC07607 | 3.50e6 | 4.06e6 | 3.85e6
CG3795 | DRSC18593 | 3.60e6 | 4.18e6 | 3.96e6
CG13312 | DRSC09983 | 3.42e6 | 3.90e6 | 3.84e6
CG15115 | DRSC06537 | 1.96e6 | 4.11e6 | –
Naa20A (N(alpha)-acetyltransferase 20 A) | DRSC19579 | 3.60e6 | 4.23e6 | 3.97e6
CG34228 | DRSC05300 | 3.40e6 | 3.90e6 | 3.92e6
CG8560 | DRSC10994 | 3.61e6 | 4.00e6 | 4.19e6
CG30492 (retired record) + M7BP | DRSC05053 | 3.55e6 | 4.01e6 | 4.05e6
CG30492 (retired record) + M7BP | DRSC05054 | 3.60e6 | 4.05e6 | 4.12e6
CG30492 (retired record) + M7BP | DRSC05055 | 3.71e6 | 4.20e6 | 4.24e6
CG30492 (retired record) + M7BP | DRSC06701 | 3.55e6 | 3.97e6 | 4.07e6
CG30492 (retired record) + M7BP | DRSC06816 | 3.54e6 | 3.95e6 | 4.07e6
CG30429 | DRSC04040 | 3.51e6 | 4.16e6 | 3.80e6
Sgf29 (SAGA-associated factor 29kDa) | DRSC04076 | 3.76e6 | 4.14e6 | 4.24e6
Gasp | DRSC12349 | 3.84e6 | 4.25e6 | 4.44e6
CG3699 | DRSC18171 | 3.58e6 | 4.01e6 | 4.11e6
CG3699 | DRSC18642 | 3.60e6 | 3.93e6 | 4.24e6
CG2962 | DRSC18247 | 3.64e6 | 4.29e6 | 3.99e6
Tdg (Thymine DNA glycosylase) | DRSC17119 | 3.50e6 | 3.96e6 | 3.99e6
Tdg (Thymine DNA glycosylase) | DRSC17169 | 3.47e6 | 3.96e6 | 3.90e6
Alg1 (ALG1, chitobiosyldiphosphodolichol beta-mannosyltransferase) | DRSC15297 | 3.58e6 | 4.03e6 | 4.09e6
Bcs1 (Bcs1 chaperone) | DRSC02789 | 3.53e6 | 4.06e6 | 3.95e6
CG13059 | DRSC09942 | 3.52e6 | 3.95e6 | 4.03e6
Zn72D (Zinc-finger protein at 72D) | DRSC11318 | 3.54e6 | 4.11e6 | 3.91e6
CG8312 | DRSC16406 | 3.55e6 | 4.02e6 | 4.03e6
CG11373 | DRSC12170 | 3.62e6 | 4.15e6 | 4.05e6
CG13069 | DRSC09952 | 3.54e6 | 4.02e6 | 4.01e6
CG34225 | DRSC05270 | 3.51e6 | 4.01e6 | 3.96e6
Dscam1 (Down syndrome cell adhesion molecule 1) | DRSC05047 | 3.57e6 | 4.08e6 | 4.03e6
Dscam1 (Down syndrome cell adhesion molecule 1) | DRSC05048 | 3.65e6 | 4.00e6 | 4.28e6
Dscam1 (Down syndrome cell adhesion molecule 1) | DRSC07407 | 3.61e6 | 4.04e6 | 4.10e6
Dscam1 (Down syndrome cell adhesion molecule 1) | DRSC21562 | 3.60e6 | 4.01e6 | 4.14e6
Dscam1 (Down syndrome cell adhesion molecule 1) | DRSC22383 | 3.45e6 | 3.78e6 | 4.08e6
Nlg4 (Neuroligin 4) | DRSC15108 | 3.66e6 | 4.13e6 | 4.16e6
Nlg4 (Neuroligin 4) | DRSC15109 | 3.61e6 | 4.06e6 | 4.12e6
Nlg4 (Neuroligin 4) | DRSC15700 | 3.60e6 | 4.05e6 | 4.12e6
Nlg4 (Neuroligin 4) | DRSC15701 | 2.82e6 | 3.57e6 | 3.56e6
Nlg4 (Neuroligin 4) | DRSC22243 | 3.32e6 | 3.82e6 | 3.88e6
TP53INP (Tumor protein p53 inducible nuclear protein) | DRSC08178 | 3.51e6 | 3.95e6 | 4.02e6
TP53INP (Tumor protein p53 inducible nuclear protein) | DRSC22552 | 3.64e6 | 4.14e6 | 4.06e6
kug (kugelei) | DRSC10911 | 3.78e6 | 4.23e6 | 4.24e6
CG4198 | DRSC18354 | 3.57e6 | 4.12e6 | 3.94e6
CG14007 | DRSC02339 | 3.47e6 | 3.95e6 | 3.93e6
CG34430 | DRSC06499 | 3.57e6 | 4.06e6 | 4.02e6
CG31729 | DRSC02524 | 3.43e6 | 3.79e6 | 3.93e6
CG31729 | DRSC02946 | 3.56e6 | 3.91e6 | 4.16e6
Paics (PAICS bifunctional enzyme) | DRSC20305 | 3.64e6 | 4.32e6 | 4.27e6
Surf4 (Surfeit 4) | DRSC16875 | 3.45e6 | 3.77e6 | 4.03e6
Usp8 (Ubiquitin specific protease 8) | DRSC15876 | 3.59e6 | 4.07e6 | 4.06e6
Hgsnat (Heparan-alpha-glucosaminide N-acetyltransferase) | DRSC18405 | 3.59e6 | 4.13e6 | 4.07e6
CG32428 | DRSC11697 | 3.33e6 | 3.73e6 | 3.79e6
CG32428 | DRSC11768 | 3.59e6 | 4.06e6 | 4.08e6
CG15226 (retired record) | DRSC03829 | 3.55e6 | 4.07e6 | 3.97e6
CG15226 (retired record) | DRSC04233 | 3.47e6 | 3.91e6 | 3.95e6
vito (viriato) | DRSC21781 | 3.37e6 | 3.88e6 | 3.85e6
CG4842 | DRSC10453 | 3.51e6 | 3.93e6 | 4.04e6
mop (myopic) | DRSC11065 | 3.50e6 | 3.97e6 | 3.96e6
CG9444 | DRSC16493 | 3.61e6 | 4.11e6 | 4.03e6
cas (castor) | DRSC12373 | 3.60e6 | 4.22e6 | 3.96e6
CG6927 | DRSC18407 | 3.73e6 | 4.08e6 | 4.09e6
inc (insomniac) | DRSC17954 | 3.61e6 | 4.12e6 | 4.07e6
inc (insomniac) | DRSC18512 | 3.51e6 | 3.99e6 | 3.97e6
Pex11ab (Peroxin 11a/b) | DRSC07145 | 3.59e6 | 3.96e6 | 4.16e6
CG14609 | DRSC12553 | 3.50e6 | 4.04e6 | 3.92e6
CG12984 | DRSC11693 | 3.56e6 | 3.98e6 | 4.07e6
CG14570 | DRSC11731 | 3.60e6 | 4.15e6 | 4.02e6
CG11044 | DRSC06026 | 3.59e6 | 3.97e6 | 4.15e6
CG5151 | DRSC10487 | 3.08e6 | 3.56e6 | 3.62e6
CG5151 | DRSC23220 | 3.50e6 | 4.07e6 | 3.91e6
